Measurements reported in patent US20070196879A1.
No constants are given. Whether binding was seen depends on the method and setting. Binding seen in cells or lysates may run through a third protein. Some binding calls cover weakened binding; strength is not graded here.

Target: T1, human paraoxonase (PON1) (human) (UniProt P27169)
T1 sequence (chain, 2 glycosylated chains on the PON1 (positions not given)): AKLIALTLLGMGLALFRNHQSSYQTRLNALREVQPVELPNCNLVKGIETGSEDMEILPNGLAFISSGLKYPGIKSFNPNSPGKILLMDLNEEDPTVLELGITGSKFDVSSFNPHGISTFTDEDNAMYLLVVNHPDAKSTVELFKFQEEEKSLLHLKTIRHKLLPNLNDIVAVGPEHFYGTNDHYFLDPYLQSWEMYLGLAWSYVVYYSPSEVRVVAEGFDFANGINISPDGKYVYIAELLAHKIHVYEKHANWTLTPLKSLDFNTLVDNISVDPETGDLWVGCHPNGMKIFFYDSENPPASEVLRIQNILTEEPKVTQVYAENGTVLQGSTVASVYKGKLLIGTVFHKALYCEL
Experiment: co-purification from human plasma through an anion exchange column (DEAE sepharose); separated only on a two-dimensional gel under drastic conditions (9M urea, 4% triton)

B1: human phosphate binding protein (HPBP), protein of the invention SEQ ID NO: 2 (protein)
chain: DINGGGATLPQKLYLTPDVLTAGFAPYIGVGSGKGKIAFLENKYNQFGTDTTKNVHWAGSDSKLTATELATYAADKEPGWGKLIQVPSVATSVAIPFRKAGANAVDLSVKELCGVFSGRIADWSGITGAGRSGPIQVVYRAESSGTTELFTRFLNAKCTTQPGTFAVTTVFANSYSLGLSPLAGAVAAIGSVGVMAADNDVTTAQGRITYISPDFAAPTLAGLDDATKVARTGKGSSSGGGAEGKSPAAANVSAAISVVPLPAAADRGDPNVWTPVFGAVTGGGVVAYPDSGYPILGFTDLIFSECYANATQTGQVRNFFTKHYGTSANDNAAIQANAFVPLPSNWKAAVRASYLTASNALSIGDSAVCGGKGRPE
binding: binds
